## Results of single-concentration screens

Source: ChEMBL document CHEMBL3988442, “University of Dundee, Small-Polar-MMV Screening Library” (2021).

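Assay of Toxoplasma gondii numbers, read through their beta-galactosidase reporter with a colour substrate. Compounds at 50 µM. Higher reads as fewer parasites (inferred from which compounds were picked for retests). Size under these conditions: about 18,000 compounds, about 170 of them at 50% or above in at least one test.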

Values are the deposited “Percent Effect”, in %. The record does not define 0% and 100%; most values in the screen are far below 50% and negative numbers occur (in some assays of this library far below -100). This is an unselected part of the compounds tested.

Compound | effect
C[C@@]1(O)CCN(CCS(=O)(=O)c2ccccc2)C[C@@H]1O | -11.17
CN(C)C(=O)C1CSc2ccccc21 (centres undefined) | 26.7
CNC(=O)CN(C)C(=O)c1cc2ccccc2cc1O | 7.788
O=C(NC1CCS(=O)(=O)c2ccccc21)C1CCC1 (centres undefined) | -2.353
Cn1nccc1C(N)=O | -25
CCc1ncc(C(=O)N2C[C@@H]3CCCN[C@@H]3C2)cn1 | -7.813
CC1(CN2CCOCC2)CCNCC1 | 2.394
CN(C)S(=O)(=O)CCCS(=O)(=O)N1CCC(C)(CN)C1 (centres undefined) | -2.213
CN1CCOC(C(=O)Nc2ncc(Cl)s2)C1 (centres undefined) | -13.27
CSc1nc2ccccc2n1CC(N)=O | -2.012
Cc1nnc(CCNC(=O)C2CCN(C(C)C)CC2)s1 | 2.096
CCNCc1cccc(C(N)=O)c1 | -1.965
Cc1ccc(NC(=O)CN2C(=O)CCC2=O)cc1C | -11.4
c1ccc(CC2CCNCC2)nc1 | 18.98
CC(C(=O)N(C)Cc1ccncc1)n1cncn1 (centres undefined) | -0.3471
Cc1n[nH]cc1CNCc1cccs1 | -1.594
NCc1ccc(C(=O)NC2CC2)cc1 | -3.855
CSc1ccc(CNC(=O)C(C)O)cc1 (centres undefined) | -1.798
CC(C(=O)NC1CC1)N1CCN(CCC#N)CC1 (centres undefined) | -16.29
O=C(COc1ccccc1Cl)NCC(=O)c1ccco1 | -2.132
CC(O)c1ncc[nH]1 (centres undefined) | 2.753
CN(C)Cc1ccccc1CNC(=O)[C@@H]1CCCN1 | -1.95
CCOc1cccc(CN2CCN(CCO)CC2)c1O | -20.53
CC(C)NC(=O)C(C)NC(=O)C1CCC1 (centres undefined) | -9.899
Cc1ccncc1NS(=O)(=O)Cc1ccccc1 | 3.192
CCCC(C)CS(=O)(=O)NCc1ccncc1 (centres undefined) | 2.295
CC(NC(=O)c1ccc(Br)s1)C(=O)N(CCO)C1CC1 (centres undefined) | 1.939
CC1(C(=O)NCCOC(N)=O)CCCc2ccccc21 (centres undefined) | 5.554
Cc1cccc(C(=O)NCc2cccc(O)c2)n1 | 6.2
CN(C)C1CCCN(C(=O)c2ncncc2Br)C1 (centres undefined) | -17.49
CCOC(=O)[C@H]1NC(=O)C[C@H]1c1ccccc1 | 5.456
Cc1ccsc1CNC(=O)Cn1cc(F)ccc1=O | 3.383
CCNC(=O)CCN1C[C@H](C2CC2)[C@@H](N)C1 | 3.794
Nc1ncc(-c2ccccc2)o1 | 28.91
CC(SC1=NCCN1)C(=O)Nc1ccc(F)cc1 (centres undefined) | 1.011
Cc1cc(CNC(=O)C2CCCCCN2C)n(C)n1 (centres undefined) | -17.97
O=C(C1CCOC1)N1CCC(Oc2ccncc2)CC1 (centres undefined) | 7.307
CC(C)C1c2nccn2CCCN1C(=O)c1cocn1 (centres undefined) | -4.544
CCn1cc(NC(=O)NCCN2CCCC(C)C2)cn1 (centres undefined) | 0.2837
CCC(=O)c1cccc(S(=O)(=O)NCC(C)(C)N)c1 | -6.011
CC(C)C(N)CCN(C)C(=O)Cc1cccs1 (centres undefined) | -16.02
CC(=O)N1CCC(c2noc(-c3ccccn3)n2)C1 (centres undefined) | -8.959
NCC(CO)Cc1cccc(Br)c1 (centres undefined) | -0.5133
Cn1cc(Br)cc(NC(=O)c2sccc2C#N)c1=O | -1.703
O=C(NCc1cc[nH]n1)NCC(O)c1cccc(Cl)c1 (centres undefined) | -7.834
Cc1cc(C(=O)CCC(=O)NC(C)CO)c(C)s1 (centres undefined) | 8.526
CCN(CC1CCNCC1)CC1CCCO1 (centres undefined) | -2.066
COc1cc(Br)cnc1C#N | -14.47
COc1ccccc1CNCC1CCCS1(=O)=O (centres undefined) | 8.038
NCCc1ccsc1 | 4.76
CCCc1cc(C(=O)NCCc2nc(C)c[nH]2)[nH]n1 | -18.44
Cc1ccc2nc(COCC(=O)NC[C@H](C)N)[nH]c2c1 | 8.994
Cc1nscc1C(=O)OCCC(=O)NC(C)C | -12.79
NCCNS(=O)(=O)c1ccc(F)cc1C(F)(F)F | -1.079
OC1CCCN(CCCNC2CCSCC2)C1 (centres undefined) | -8.063
OC1(CNCC2(O)CCCC2)CCCC1 | -8.664

Some entries from above, unchanged:

Compound	effect
Cc1n[nH]cc1CNCc1cccs1	-1.594
Cc1nnc(CCNC(=O)C2CCN(C(C)C)CC2)s1	2.096
CC(O)c1ncc[nH]1 (centres undefined)	2.753
C[C@@]1(O)CCN(CCS(=O)(=O)c2ccccc2)C[C@@H]1O	-11.17
CC(SC1=NCCN1)C(=O)Nc1ccc(F)cc1 (centres undefined)	1.011
CC(=O)N1CCC(c2noc(-c3ccccn3)n2)C1 (centres undefined)	-8.959